Earlier results, collected in patent US9566252B2, “Method for the alleviation of dyspareunia in women” (HORMOS MEDICAL LTD., priority 2000, dated 2017).
At least one structure is not confirmed: it was looked up by name or label, or the drawing left a doubt.

Test system: vaginal epithelium
Conditions: cited from earlier work

With `C[C@]12CC[C@@H]3c4ccc(O)cc4CC[C@H]3[C@@H]1CC[C@@H]2O` [estradiol] as the compound, how does the “Increase in karyopyknosis index for superficial cells” value (known effect of estradiol, comparison) read?
Its value is ~100.

What about the “Superficial cell fraction after treatment” value (postmenopausal women, estradiol treatment, general knowledge) of the same compound?
The value was ~100.
